Like-named read-outs stand apart in the source and are kept apart here. These are yes or no findings as the source states them, for the method shown. Some results given as binding are weak or reduced against the parent protein; the word gives no strength.
What was measured:
Experiment in all cases: SDS agarose gel electrophoresis
[1] = target: YPet-RIPK1(497-583) (human) (UniProt Q13546)
[2] = target: mCHERRY-M45(1-277WT) (murine cytomegalovirus) (UniProt Q06A28)
[3] = target: YPet-RIPK3(387-518) (human) (UniProt Q9Y572)
[4] = target: YPet-RIPK3(387-518) (human) (UniProt Q9Y572); remark: listed apart in the source

Amino acid sequences for entries named in this document (tags omitted). Residues count along the entry.
UniProt Q9Y572, residues 387-518: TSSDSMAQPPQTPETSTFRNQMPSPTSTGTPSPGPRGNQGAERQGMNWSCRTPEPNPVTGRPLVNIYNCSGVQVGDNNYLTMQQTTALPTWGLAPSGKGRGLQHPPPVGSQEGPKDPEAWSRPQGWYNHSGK

Q: Which results are given for “mCHERRY-M45(1-277WT) (from UniProt Q06A28 1-277) (domain or fragment)”?
A: binding [1]: binds; binding [2]: binds; binding [3]: binds

B1: mCHERRY-M45(1-90WT) (domain or fragment, murine cytomegalovirus, UniProt Q06A28 1-90, looked up)
chain: MDRQPKVYSDPDNGFFFLDVPMPDDGQGGQQTATTAAGGAFGVGGGHSVPYVRIMNGVSGIQIGNHNAMSIASCWSPSYTDRRRRSYPKT
Q: How did the binding [3] turn out when B1 was run?
A: Its binding is “binds”.

Q: What about the binding [4] of the same molecule?
A: The binding was “no binding (condition: with 2% SDS)”.

B2: YPet-RIPK1(497-583) (domain or fragment, human, UniProt Q13546 497-583, looked up)
chain: MPSLHNIPVPETNYLGNTPTMPFSSLPPTDESIKYTIYNSTGIQIGAYNYMEIGGTSSSLLDSTNTNFKEEPAAKYQAIFDNTTSLT
Q: B2 was tested. Which binding [1] did it give?
A: Its binding is “binds”.
